The results in this text go back to PMC7819943, “Rice protein-binding microarrays: a tool to detect cis-acting elements near promoter regions in rice”.

Chains of the proteins cited; added tags and fusions are not shown.
UniProt Q0JBA9, entry or part of it: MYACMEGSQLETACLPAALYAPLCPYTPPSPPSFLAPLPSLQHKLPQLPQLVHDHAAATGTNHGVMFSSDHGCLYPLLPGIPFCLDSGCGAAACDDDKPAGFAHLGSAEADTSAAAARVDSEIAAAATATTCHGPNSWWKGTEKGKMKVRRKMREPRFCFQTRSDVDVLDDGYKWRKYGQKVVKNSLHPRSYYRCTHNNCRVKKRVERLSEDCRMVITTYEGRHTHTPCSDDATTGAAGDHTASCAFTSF

The other results are listed elsewhere or left out.

The assay concerns the target OsWRKY34 (Oryza sativa, UniProt Q0JBA9 1-250). Description: protein-binding microarray (RPBM); PBS, 2% BSA, 51.3 ng/ul salmon testes DNA, 50 uM zinc acetate, 200 nM TF, 25 C, 1 h; high values mean tight binding. The following applies: protein: recombinant; tags: N-terminal polyhistidine and DsRed monomer fusion (pET32a); label: CyDye5-dUTP incorporated in the synthesized complementary strand; 3' TTTTT single-stranded linker to array surface; dsDNA, one strand shown. In outline:
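Polyhistidine-tagged DsRed fusions of transcription factors, joined at the N-terminus, were expressed in E. coli BL21-CodonPlus and isolated on Ni–NTA. They were incubated at 200 nM for 1 h at 25 °C on a custom Agilent array, double-stranded and BSA-blocked, in PBS with 2% BSA, salmon testes DNA and 50 µM zinc acetate. The binding signal is per-feature fluorescence intensity (arbitrary units) read on an Axon 4000B scanner after washing.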
As to “ATCTGGTTTCTTAATGCTTGTATCCAATCTCAAAAGTTCTCGGAGTCACCTAGTGCAG”, the binding signal was 8250 fluorescence intensity (a.u.). Then “TCTGTGGTGCCTTCTAATCCAATTTTCTGACTTTCTTGCTCGGAGTCACCTAGTGCAG”, with 12400 fluorescence intensity (a.u.).

With “TTCTACAGGAGTATCATCATCTTTGTGTTCTGGCTCCTGTCGGAGTCACCTAGTGCAG”, the binding signal was 9040 fluorescence intensity (a.u.).

“GAGGGGAAATGTCTTCAGGGGTTGGAAAGGAGGTTGTAGACGGAGTCACCTAGTGCAG”: the binding signal was 11100 fluorescence intensity (a.u.). For the sequence “CGCCCTGTATTGTTGGCGGGGTTCTCTCTGCATCTCTTCTCGGAGTCACCTAGTGCAG”, the binding signal was 8340 fluorescence intensity (a.u.). Then “ACCAGGTTATGATCTACTTTTATTTTGTTTTCTAAATATTCGGAGTCACCTAGTGCAG”, with 8460 fluorescence intensity (a.u.); and “GGCCAAAATGACAAAGTGGTGGTGAGTGCGTATTTCATATCGGAGTCACCTAGTGCAG”, with 9190 fluorescence intensity (a.u.); and “TTCCCCGGCAGGAAATTCGATGTTTTCGTCTCTAGGTCCACGGAGTCACCTAGTGCAG”, with 9910 fluorescence intensity (a.u.). Next, “TTCCTCATCCCACGGCGCCCATGCCCACCACCTGTTCGACCGGAGTCACCTAGTGCAG”: 11100 fluorescence intensity (a.u.); “GGGGTAGAATCTCTCTCTCGGTGCCACAGCTTTAAAGTTACGGAGTCACCTAGTGCAG”: 10700 fluorescence intensity (a.u.). For “TGTCCATGGTACTGTGTTACTCTTTTACTCTTCAACCAAGCGGAGTCACCTAGTGCAG”, the binding signal is 10100 fluorescence intensity (a.u.). Next, “AGCGCACGGCGCCGCGCCGTCATCTCGTGCTTGTATCCTTCGGAGTCACCTAGTGCAG”: 10300 fluorescence intensity (a.u.). In the case of “GCTGCCACCTGTCACCTCCTGTTAACGACCAAAATTGGTACGGAGTCACCTAGTGCAG”, the binding signal was 8090 fluorescence intensity (a.u.). Then “CCCCGCTGTCTGAGGGACTGCCTCTTCGGTGGGCGGGGAACGGAGTCACCTAGTGCAG”, with 8160 fluorescence intensity (a.u.); and “GCTATTATTCGTCTCGCTTCCCATATAACCACAGGTATAACGGAGTCACCTAGTGCAG”, with 8830 fluorescence intensity (a.u.); and “GGCACTACACTAAATGTTGTTTTCTTCTCTCTATTTTCTTCGGAGTCACCTAGTGCAG”, with 13700 fluorescence intensity (a.u.). As to “ATCTTACGCTGGACAGCATCCACCAACATCTCTCTCTCTTCGGAGTCACCTAGTGCAG”, the binding signal is 8280 fluorescence intensity (a.u.). Then “CCGTGTTGTTCATCGTGCACTCGCCTCCGTCGCTTGCGAACGGAGTCACCTAGTGCAG”, with 9800 fluorescence intensity (a.u.). Next, “CTTCGCCCACCCGCTTGTCACGCACGAGCCCGGCCAGCGTCGGAGTCACCTAGTGCAG”: 8360 fluorescence intensity (a.u.).

Turning to “GCCTCCGCTTCCGCTCCGCCGCCGCCTGCCTCGCCGCGCCCGGAGTCACCTAGTGCAG”, the binding signal was 9800 fluorescence intensity (a.u.). Next, “ACCACTCCACGCGCCTATATCACCACACGTCACGCTTCCACGGAGTCACCTAGTGCAG”: 16700 fluorescence intensity (a.u.); “CAAGGGAGGTCGGGGAGGATGATTGGGTTGGGTAGAGCGGCGGAGTCACCTAGTGCAG”: 12200 fluorescence intensity (a.u.); “ACTAATTGTGGCCATGTTCATCGTGCAGTTCCTTGGATCTCGGAGTCACCTAGTGCAG”: 8880 fluorescence intensity (a.u.). Next, “AGTGGCATTCACATCCCATTTATACATTTTGTCTCAGAAACGGAGTCACCTAGTGCAG”: 8180 fluorescence intensity (a.u.); “CCATCCACTTGCAATATCTCTCTTTCTCGCTCGCTCTCGCCGGAGTCACCTAGTGCAG”: 8320 fluorescence intensity (a.u.); “TACACTAGCACACACTACATACAATCTTCTTCTTCTTCTTCGGAGTCACCTAGTGCAG”: 8780 fluorescence intensity (a.u.). As for “GGATTTGGCCATTTCTTGCCTCGTGTCGTTGGCAGAGACCCGGAGTCACCTAGTGCAG”, the binding signal was 8060 fluorescence intensity (a.u.).

As for “ATGGTTTCTGTCCGTTTCCGTACCGTTTTCACCCCTAATTCGGAGTCACCTAGTGCAG”, the binding signal was 8310 fluorescence intensity (a.u.).

“TAGTCCATTCCGTTTCAAATTATTTGTGGTTCTACATTTTCGGAGTCACCTAGTGCAG”: the binding signal is 11800 fluorescence intensity (a.u.). “TGCCAATTTTGATGGGGCCTTTTTTTTTATTACTATTTCTCGGAGTCACCTAGTGCAG”: the binding signal was 8920 fluorescence intensity (a.u.). With “TCTCGTTTCCTTGCACGTAAGCCGCGCCCTTTTGCCTTGCCGGAGTCACCTAGTGCAG”, the binding signal is 8530 fluorescence intensity (a.u.).

For the sequence “TTTCACTGCCATCAACTTCATCACATCGATCTCCTCCTGACGGAGTCACCTAGTGCAG”, the binding signal is 8050 fluorescence intensity (a.u.). Then “CCTTTGCTCTTTCCGCTAATAGCGTGTACATCCCTGTTAACGGAGTCACCTAGTGCAG”, with 9500 fluorescence intensity (a.u.); and “ACCCGTCTTGTTCTCACCGACGACGCGCTGGCATGTATTTCGGAGTCACCTAGTGCAG”, with 9120 fluorescence intensity (a.u.); and “ATATGTTTGACCGTTCGTCTTATTCAAAAACTTTTGTGAACGGAGTCACCTAGTGCAG”, with 8180 fluorescence intensity (a.u.). Then “GCACCACCATCCTTCCTAGGAAAACCCCACCCACCCTCACCGGAGTCACCTAGTGCAG”, with 8440 fluorescence intensity (a.u.); and “ATATGGACTGTTTGTTTTGTTCCCCTATCTAGAATTATTCCGGAGTCACCTAGTGCAG”, with 8420 fluorescence intensity (a.u.); and “GATTGTTTGCTAGTATCTCTTTCCATGGAGACATAAGAATCGGAGTCACCTAGTGCAG”, with 8600 fluorescence intensity (a.u.). Then “CGCCATCCCAATCCGATCTCCCGCGAGCTCCAGATCCACCCGGAGTCACCTAGTGCAG”, with 9180 fluorescence intensity (a.u.); and “CGACCTCACGCTCCACCTCTACTTCCGGCGCGCCGCGCGGCGGAGTCACCTAGTGCAG”, with 8600 fluorescence intensity (a.u.). Take “TCTATACCTAGCTATCTTTTACAATTGCTAATTCCACAAGCGGAGTCACCTAGTGCAG”: the binding signal is 8870 fluorescence intensity (a.u.). “ATCGAGCTCTCTTACCAACGCCGATCTAAAGCTTCACCTCCGGAGTCACCTAGTGCAG”: the binding signal is 8800 fluorescence intensity (a.u.).
